Data as given in paper PMC10870779.
No constants are given. Whether binding was seen depends on the method and setting. Binding seen in cells or lysates may run through a third protein. Some entries that bind do so weakly or less than the wild type. For some assays here: Tags and fused reporters may be left off the sequences shown.

Protein sequences, listed by entry. Tags and fused reporters are not part of them.
UniProt P23258: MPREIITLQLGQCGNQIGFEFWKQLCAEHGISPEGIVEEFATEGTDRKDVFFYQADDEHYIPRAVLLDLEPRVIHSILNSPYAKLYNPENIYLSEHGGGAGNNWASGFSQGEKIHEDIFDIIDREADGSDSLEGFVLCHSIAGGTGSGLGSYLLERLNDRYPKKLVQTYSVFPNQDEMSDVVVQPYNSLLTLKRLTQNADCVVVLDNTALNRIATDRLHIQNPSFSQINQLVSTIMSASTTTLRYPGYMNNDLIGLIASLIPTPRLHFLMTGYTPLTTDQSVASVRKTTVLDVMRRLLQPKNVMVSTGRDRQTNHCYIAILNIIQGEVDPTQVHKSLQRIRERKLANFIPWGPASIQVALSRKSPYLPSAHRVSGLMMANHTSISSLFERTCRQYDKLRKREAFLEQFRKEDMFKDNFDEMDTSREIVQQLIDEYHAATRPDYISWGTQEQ
UniProt P58854: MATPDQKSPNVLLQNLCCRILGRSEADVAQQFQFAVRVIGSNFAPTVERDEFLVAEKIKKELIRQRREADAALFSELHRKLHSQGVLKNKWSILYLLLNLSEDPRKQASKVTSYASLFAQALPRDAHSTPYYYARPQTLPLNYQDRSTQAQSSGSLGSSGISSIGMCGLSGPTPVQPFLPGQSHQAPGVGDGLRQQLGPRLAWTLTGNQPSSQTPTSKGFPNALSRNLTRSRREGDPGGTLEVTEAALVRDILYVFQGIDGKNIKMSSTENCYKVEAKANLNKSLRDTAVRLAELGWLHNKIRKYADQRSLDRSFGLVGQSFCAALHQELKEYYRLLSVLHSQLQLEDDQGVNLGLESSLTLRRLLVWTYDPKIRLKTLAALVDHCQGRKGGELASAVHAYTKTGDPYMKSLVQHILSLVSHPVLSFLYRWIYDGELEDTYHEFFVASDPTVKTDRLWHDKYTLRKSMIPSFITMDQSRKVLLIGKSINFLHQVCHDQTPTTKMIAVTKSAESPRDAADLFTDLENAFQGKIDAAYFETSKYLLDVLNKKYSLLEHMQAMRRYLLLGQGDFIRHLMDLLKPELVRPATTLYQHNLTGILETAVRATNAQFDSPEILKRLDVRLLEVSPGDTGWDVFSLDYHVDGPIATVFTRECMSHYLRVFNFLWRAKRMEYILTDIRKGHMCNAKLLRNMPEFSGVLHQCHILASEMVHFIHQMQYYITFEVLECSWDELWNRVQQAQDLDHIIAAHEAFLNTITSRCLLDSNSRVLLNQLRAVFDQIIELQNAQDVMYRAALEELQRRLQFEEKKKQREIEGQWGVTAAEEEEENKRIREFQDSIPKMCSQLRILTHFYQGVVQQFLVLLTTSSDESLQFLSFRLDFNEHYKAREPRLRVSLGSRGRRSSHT
UniProt Q921G8: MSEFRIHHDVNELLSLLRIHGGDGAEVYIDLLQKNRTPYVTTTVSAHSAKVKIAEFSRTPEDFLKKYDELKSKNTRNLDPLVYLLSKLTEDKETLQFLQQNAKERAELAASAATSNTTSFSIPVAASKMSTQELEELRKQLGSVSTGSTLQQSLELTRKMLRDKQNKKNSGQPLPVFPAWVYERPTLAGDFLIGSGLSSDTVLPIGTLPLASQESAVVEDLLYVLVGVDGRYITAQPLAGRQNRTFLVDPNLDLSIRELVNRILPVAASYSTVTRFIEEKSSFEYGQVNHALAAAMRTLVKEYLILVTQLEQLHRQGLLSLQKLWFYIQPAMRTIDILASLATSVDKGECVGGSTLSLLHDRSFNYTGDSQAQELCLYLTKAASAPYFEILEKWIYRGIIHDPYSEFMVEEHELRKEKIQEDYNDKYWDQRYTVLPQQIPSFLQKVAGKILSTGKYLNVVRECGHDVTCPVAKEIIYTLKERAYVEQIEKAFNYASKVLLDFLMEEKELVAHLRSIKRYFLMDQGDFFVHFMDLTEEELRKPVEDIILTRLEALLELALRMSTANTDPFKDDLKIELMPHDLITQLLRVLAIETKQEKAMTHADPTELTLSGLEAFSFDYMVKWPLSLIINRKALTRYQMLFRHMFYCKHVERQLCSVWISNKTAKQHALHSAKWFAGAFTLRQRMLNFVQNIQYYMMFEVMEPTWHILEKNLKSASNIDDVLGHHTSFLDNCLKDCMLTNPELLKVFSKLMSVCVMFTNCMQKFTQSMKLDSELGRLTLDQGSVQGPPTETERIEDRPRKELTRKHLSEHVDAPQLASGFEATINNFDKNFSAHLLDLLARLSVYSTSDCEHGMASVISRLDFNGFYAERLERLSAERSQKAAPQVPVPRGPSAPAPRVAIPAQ
UniProt Q9D4F8: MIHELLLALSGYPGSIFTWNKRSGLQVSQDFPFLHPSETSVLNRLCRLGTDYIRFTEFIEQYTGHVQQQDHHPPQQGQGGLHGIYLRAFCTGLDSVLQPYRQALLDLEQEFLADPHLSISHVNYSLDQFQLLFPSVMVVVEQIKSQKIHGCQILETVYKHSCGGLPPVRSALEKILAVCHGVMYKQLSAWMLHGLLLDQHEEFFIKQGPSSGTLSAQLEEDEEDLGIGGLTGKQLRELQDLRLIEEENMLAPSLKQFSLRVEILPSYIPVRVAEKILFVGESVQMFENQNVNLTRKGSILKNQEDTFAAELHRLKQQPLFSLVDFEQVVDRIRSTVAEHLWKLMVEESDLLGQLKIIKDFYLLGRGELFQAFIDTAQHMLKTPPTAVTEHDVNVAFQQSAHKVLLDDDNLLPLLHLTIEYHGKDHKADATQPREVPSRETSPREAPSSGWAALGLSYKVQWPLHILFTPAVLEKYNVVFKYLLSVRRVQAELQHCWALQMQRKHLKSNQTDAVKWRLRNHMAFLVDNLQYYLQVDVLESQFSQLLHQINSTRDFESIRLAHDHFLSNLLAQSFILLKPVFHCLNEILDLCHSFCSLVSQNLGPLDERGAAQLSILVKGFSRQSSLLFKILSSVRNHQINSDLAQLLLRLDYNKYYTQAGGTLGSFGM

Experiments:
[1] = biological target: T1, G protein-coupled receptor kinase-interacting protein 2 (GIT2), GIT2-long, endogenous (mouse (endogenous in BMMCL)) (UniProt Q9JLQ2); test: co-IP; whole-cell 1% NP-40 extracts of BMMCL (HEPES buffer pH 7.6, 75 mM NaCl, 1 mM MgCl2, 1 mM EGTA) incubated with protein A beads saturated with rabbit Ab to GIT2 or mouse mAb TU-31 to γ-tubulin; endogenous proteins; immunoblot
T1 sequence: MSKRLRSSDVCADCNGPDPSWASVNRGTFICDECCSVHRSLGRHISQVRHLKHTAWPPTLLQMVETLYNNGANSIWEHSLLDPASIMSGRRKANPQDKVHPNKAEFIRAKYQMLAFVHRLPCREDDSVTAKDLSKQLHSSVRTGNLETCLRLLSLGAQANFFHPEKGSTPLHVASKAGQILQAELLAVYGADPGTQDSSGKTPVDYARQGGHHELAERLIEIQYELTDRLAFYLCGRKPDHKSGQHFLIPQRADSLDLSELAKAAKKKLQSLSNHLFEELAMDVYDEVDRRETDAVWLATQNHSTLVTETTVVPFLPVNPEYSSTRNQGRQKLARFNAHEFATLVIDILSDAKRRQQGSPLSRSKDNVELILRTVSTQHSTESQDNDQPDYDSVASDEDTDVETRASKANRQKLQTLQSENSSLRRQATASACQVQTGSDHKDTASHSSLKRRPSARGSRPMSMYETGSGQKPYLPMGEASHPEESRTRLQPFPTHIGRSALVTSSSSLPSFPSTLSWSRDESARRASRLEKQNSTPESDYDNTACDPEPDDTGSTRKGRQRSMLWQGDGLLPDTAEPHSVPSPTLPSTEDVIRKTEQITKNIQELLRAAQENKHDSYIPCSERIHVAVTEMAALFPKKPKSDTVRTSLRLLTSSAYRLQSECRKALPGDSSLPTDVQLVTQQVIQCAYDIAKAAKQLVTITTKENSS

[2] = biological target: T2, C-terminally TagRFP-tagged mouse GIT2, transcript variant 1 (mouse) (UniProt Q9JLQ2); test: co-IP; whole-cell extracts of cells expressing GIT2-TagRFP or TagRFP alone; protein A beads with rabbit Ab to tRFP or mAb to γ-tubulin; immunoblot
T2 sequence: T1 sequence

[3] = biological target: N-terminally GST-tagged human γ-tubulin (human) (UniProt P23258); test: pull-down; GST-tagged human γ-tubulin or GST alone with whole-cell extracts; immunoblot; only the target purified

γ-tubulin complex protein 3 (GCP3), endogenous (from UniProt P58854 1-905)
binding [1]: binds
binding [2]: binds

γ-tubulin complex protein 2 (GCP2), endogenous (from UniProt Q921G8 1-905)
binding [1]: binds
binding [2]: binds
binding [3]: binds

γ-tubulin complex protein 4 (GCP4), endogenous (from UniProt Q9D4F8 1-667)
binding [1]: binds
binding [2]: binds
binding [3]: binds
